The source of these data is the supplement of paper PMC6411743.

Sequences of proteins named here, by UniProt entry; tags and fusion partners are left off. A change or cut given only in a name is not applied to a line headed by its entry.
UniProt P21291: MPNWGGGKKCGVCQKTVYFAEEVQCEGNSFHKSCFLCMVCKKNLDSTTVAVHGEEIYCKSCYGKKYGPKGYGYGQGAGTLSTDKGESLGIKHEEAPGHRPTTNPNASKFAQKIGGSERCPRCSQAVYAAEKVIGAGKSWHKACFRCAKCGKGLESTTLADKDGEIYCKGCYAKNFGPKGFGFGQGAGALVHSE
UniProt P35606: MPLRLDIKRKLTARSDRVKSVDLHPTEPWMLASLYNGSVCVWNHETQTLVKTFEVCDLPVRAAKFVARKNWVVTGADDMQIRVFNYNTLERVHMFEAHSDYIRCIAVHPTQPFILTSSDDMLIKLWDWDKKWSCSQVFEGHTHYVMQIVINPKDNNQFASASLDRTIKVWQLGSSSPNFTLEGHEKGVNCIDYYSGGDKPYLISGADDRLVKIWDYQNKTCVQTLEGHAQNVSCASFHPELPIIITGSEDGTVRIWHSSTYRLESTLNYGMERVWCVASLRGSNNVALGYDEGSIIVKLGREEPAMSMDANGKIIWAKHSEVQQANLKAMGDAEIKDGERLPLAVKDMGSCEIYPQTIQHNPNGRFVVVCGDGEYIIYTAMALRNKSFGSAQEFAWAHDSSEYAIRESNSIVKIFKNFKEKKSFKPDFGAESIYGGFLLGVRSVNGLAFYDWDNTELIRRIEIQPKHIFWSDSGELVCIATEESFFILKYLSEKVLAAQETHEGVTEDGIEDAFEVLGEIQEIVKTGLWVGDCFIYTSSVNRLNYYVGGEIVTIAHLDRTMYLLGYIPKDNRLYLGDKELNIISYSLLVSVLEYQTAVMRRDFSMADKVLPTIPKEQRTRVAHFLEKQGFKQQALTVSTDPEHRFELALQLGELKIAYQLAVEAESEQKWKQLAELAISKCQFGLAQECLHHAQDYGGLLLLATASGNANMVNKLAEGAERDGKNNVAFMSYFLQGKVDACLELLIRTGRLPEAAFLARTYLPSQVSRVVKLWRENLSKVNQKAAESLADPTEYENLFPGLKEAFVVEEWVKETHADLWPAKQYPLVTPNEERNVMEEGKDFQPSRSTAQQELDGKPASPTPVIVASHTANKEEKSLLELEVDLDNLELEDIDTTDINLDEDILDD
UniProt P38117: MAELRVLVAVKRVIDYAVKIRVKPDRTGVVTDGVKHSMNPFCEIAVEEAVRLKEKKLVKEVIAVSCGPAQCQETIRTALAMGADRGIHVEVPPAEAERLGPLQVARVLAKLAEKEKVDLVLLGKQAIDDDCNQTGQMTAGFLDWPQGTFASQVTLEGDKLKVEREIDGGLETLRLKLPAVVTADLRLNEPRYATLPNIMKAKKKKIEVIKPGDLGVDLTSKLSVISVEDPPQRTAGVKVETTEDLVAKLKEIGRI
UniProt P25789: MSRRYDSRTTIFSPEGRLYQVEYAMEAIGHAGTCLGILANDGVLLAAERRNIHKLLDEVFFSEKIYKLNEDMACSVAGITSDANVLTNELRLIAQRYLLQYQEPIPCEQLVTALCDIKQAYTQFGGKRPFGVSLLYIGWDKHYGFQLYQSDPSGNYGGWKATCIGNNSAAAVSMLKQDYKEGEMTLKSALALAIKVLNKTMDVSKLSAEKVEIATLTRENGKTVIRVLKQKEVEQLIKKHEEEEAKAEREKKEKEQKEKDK
UniProt P23743: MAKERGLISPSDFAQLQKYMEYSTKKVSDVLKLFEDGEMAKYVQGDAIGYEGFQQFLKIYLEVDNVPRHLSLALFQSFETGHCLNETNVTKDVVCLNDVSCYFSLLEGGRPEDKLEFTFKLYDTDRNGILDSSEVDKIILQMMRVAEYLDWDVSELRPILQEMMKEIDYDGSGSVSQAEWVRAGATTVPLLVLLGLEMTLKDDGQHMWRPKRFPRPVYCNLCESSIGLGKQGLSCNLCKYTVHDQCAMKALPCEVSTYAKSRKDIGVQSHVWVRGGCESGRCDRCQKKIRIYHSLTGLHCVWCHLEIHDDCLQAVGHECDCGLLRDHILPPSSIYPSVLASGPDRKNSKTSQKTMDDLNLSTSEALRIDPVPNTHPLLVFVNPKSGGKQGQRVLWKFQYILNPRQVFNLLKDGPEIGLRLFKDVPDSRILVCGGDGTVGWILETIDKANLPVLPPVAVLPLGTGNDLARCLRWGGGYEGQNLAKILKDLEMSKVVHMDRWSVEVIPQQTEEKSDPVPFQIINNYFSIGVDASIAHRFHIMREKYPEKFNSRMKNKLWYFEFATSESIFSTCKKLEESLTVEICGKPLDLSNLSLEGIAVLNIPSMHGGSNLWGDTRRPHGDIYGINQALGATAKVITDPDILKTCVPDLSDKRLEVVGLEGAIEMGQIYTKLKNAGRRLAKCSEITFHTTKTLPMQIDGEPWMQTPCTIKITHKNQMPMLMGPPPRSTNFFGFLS
UniProt P38606, whole entry: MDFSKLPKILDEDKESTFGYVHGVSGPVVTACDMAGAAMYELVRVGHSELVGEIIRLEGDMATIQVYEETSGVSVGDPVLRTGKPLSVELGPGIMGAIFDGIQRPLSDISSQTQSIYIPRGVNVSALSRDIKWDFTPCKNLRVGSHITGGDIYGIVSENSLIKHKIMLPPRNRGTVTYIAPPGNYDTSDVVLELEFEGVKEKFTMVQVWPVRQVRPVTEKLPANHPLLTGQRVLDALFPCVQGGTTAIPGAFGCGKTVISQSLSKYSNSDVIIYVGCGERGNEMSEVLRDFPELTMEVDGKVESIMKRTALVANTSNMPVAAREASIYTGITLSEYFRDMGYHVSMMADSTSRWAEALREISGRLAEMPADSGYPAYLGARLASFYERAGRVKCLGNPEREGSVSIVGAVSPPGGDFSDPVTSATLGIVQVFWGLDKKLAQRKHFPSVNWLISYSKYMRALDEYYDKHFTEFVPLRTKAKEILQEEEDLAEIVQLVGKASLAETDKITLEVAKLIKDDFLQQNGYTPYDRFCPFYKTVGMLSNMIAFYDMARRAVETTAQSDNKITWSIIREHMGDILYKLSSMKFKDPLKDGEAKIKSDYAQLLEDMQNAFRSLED
UniProt P24588, whole entry: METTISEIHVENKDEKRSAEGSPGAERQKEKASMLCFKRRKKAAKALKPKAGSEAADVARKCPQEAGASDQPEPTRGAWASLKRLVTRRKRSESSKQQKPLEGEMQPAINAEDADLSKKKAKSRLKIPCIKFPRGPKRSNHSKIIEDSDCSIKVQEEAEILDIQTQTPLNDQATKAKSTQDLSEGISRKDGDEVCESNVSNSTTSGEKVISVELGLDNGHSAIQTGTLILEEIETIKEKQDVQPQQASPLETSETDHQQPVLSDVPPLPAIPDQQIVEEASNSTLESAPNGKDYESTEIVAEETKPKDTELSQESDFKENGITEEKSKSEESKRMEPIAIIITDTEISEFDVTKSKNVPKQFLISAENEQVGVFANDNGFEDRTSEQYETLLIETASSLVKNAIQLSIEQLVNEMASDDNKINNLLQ
UniProt P17096: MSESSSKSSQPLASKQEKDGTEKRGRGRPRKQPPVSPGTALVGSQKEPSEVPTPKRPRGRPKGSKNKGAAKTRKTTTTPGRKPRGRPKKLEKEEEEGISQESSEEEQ
UniProt P38935: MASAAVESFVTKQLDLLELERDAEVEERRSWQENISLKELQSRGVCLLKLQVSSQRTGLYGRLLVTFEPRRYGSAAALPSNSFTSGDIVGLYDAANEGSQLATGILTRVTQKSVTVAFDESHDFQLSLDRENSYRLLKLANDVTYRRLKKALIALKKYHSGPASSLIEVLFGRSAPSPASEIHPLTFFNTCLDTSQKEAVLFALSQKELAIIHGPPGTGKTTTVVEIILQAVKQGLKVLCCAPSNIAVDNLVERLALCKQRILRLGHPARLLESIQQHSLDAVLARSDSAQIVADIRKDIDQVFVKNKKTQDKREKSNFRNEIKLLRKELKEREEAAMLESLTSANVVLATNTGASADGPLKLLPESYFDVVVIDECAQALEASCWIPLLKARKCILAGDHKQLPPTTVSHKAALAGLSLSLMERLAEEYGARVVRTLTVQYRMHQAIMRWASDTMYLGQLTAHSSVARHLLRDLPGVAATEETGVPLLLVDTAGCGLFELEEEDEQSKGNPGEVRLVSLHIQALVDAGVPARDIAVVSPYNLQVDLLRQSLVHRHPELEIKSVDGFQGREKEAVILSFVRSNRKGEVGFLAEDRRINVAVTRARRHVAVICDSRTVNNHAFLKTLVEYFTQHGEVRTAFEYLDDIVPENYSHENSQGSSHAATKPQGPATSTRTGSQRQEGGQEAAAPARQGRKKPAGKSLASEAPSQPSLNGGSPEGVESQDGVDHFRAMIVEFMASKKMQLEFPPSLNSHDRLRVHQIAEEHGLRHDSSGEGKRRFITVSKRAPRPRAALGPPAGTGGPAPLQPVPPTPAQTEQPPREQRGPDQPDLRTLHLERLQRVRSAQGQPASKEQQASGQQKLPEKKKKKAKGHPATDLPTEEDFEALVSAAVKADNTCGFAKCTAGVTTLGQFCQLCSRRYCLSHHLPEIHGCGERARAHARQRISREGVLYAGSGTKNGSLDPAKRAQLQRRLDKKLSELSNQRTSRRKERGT
UniProt P32121, whole entry: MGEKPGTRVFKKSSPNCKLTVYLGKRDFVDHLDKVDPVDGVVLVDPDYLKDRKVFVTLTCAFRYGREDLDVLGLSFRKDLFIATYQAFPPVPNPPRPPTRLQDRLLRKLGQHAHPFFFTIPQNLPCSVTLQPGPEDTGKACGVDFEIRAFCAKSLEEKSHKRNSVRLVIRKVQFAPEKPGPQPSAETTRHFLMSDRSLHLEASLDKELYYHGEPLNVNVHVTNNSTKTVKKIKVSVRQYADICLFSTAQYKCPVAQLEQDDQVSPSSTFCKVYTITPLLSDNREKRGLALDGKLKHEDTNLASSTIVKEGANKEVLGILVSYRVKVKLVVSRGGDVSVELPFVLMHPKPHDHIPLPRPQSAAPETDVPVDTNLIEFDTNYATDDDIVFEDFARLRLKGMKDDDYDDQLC
UniProt P27144: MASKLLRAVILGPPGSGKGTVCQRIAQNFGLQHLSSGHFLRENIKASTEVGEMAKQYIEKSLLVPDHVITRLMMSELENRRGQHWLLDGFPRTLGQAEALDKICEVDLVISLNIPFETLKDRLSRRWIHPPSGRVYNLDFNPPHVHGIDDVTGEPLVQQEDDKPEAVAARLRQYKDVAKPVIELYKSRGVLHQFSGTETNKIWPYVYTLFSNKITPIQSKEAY
UniProt P35221: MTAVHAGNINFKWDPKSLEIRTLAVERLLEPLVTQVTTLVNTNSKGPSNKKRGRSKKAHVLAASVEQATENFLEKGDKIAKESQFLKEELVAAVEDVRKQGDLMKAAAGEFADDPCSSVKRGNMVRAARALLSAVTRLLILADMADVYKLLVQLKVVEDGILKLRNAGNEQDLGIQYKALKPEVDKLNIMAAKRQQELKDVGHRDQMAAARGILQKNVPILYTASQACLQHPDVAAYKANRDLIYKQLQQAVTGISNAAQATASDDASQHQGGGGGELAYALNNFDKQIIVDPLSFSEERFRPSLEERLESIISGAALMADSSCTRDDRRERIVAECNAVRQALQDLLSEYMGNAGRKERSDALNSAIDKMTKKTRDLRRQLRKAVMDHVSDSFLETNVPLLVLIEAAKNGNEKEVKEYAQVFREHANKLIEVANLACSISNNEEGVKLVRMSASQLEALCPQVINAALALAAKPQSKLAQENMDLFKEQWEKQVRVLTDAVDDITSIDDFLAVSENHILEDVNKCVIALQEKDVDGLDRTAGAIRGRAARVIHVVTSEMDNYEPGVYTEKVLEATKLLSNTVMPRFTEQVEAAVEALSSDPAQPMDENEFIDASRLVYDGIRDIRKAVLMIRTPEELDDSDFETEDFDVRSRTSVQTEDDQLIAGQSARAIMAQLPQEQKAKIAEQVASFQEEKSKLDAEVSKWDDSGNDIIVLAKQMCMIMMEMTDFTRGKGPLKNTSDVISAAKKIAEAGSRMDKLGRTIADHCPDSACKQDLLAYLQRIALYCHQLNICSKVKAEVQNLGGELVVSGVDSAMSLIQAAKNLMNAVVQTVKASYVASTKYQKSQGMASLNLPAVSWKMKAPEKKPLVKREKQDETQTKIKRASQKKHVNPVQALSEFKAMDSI
UniProt P21283, whole entry: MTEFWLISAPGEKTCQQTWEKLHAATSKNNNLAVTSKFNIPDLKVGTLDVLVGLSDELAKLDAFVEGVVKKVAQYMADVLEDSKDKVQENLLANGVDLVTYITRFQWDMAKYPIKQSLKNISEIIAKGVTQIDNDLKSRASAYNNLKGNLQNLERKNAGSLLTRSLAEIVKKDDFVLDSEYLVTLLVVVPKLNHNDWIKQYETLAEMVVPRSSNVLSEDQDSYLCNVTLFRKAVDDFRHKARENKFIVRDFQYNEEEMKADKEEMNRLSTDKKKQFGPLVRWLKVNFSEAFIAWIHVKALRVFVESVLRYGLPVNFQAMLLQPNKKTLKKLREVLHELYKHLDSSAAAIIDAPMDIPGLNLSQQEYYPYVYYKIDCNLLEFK

Compound in the assay: Nc1ncnc2c1ncn2[C@@H]1O[C@H](COP(=O)(O)OP(=O)(O)NP(=O)(O)O)[C@@H](O)[C@H]1O [adenylyl imidodiphosphate]
Put plainly: NP40-soluble protein abundance relative to vehicle (solubility fold change) (ratio); higher = more soluble protein in presence of AMP-PNP. In a few lines:
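In three independent experiments, Jurkat crude lysate made by Dounce homogenisation was treated for 10 min at room temperature and then 3 min at 37 °C with eight concentrations ranging from 0.1 to 10 mM. It was then solubilised with 0.8% NP40 plus benzonase for 60 min at 4 °C and ultracentrifuged. The supernatant was TMT-labelled for LC-MS/MS, and each value is the fold change against the detergent-processed vehicle for the same replicate, using vsn-normalised intensities.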

± gives the standard deviation of the averaged measurements. This is a selection; strong and weak results do not stand in their true shares.

Turning to CSRP1 (UniProt P21291), the NP40-soluble protein abundance is 1 ± 0.03 (concentration: 1mM); 0.992 ± 0.029 (concentration: 2mM); 0.981 ± 0.013 (concentration: 4mM); 1.04 ± 0.044 (concentration: 6mM); 1.02 ± 0.038 (concentration: 8mM); 1.03 ± 0.048 (concentration: 10mM).
On to UniProt P22694 and related entries, for which the NP40-soluble protein abundance was 0.983 ± 0.016 (concentration: 1mM); 0.947 ± 0.042 (concentration: 2mM); 0.973 ± 0.016 (concentration: 4mM); 0.984 ± 0.041 (concentration: 6mM); 0.98 ± 0.013 (concentration: 8mM); 0.964 ± 0.054 (concentration: 10mM).
With UniProt P35606 and related entries, the NP40-soluble protein abundance (concentration: 1mM) was determined as 1.01 ± 0.014; the NP40-soluble protein abundance (concentration: 2mM) came to 0.94 ± 0.084; the NP40-soluble protein abundance (concentration: 4mM) is 0.975 ± 0.021; the NP40-soluble protein abundance (concentration: 6mM) turned out to be 0.961 ± 0.028; the NP40-soluble protein abundance (concentration: 8mM) amounted to 0.99 ± 0.032; the NP40-soluble protein abundance (concentration: 10mM) is 0.936 ± 0.044.
On to UniProt P38117 and related entries, for which the NP40-soluble protein abundance by setting is: (concentration: 1mM) 0.981 ± 0.016; (concentration: 2mM) 0.983 ± 0.021; (concentration: 4mM) 0.967 ± 0.029; (concentration: 6mM) 0.992 ± 0.018; (concentration: 8mM) 0.966 ± 0.034; (concentration: 10mM) 0.998 ± 0.027.
As to PSMA4 (UniProt P25789), the NP40-soluble protein abundance by setting is: (concentration: 1mM) 0.895 ± 0.042; (concentration: 2mM) 0.868 ± 0.046; (concentration: 4mM) 0.871 ± 0.094; (concentration: 6mM) 0.989 ± 0.085; (concentration: 8mM) 1 ± 0.083; (concentration: 10mM) 1 ± 0.15.
DGKA (UniProt P23743): the NP40-soluble protein abundance (concentration: 1mM) worked out at 1.04 ± 0.018; the NP40-soluble protein abundance (concentration: 2mM) worked out at 0.982 ± 0.1; the NP40-soluble protein abundance (concentration: 4mM) is 1.06 ± 0.046; the NP40-soluble protein abundance (concentration: 6mM) is 1.01 ± 0.022; the NP40-soluble protein abundance (concentration: 8mM) amounted to 1.04 ± 0.028; the NP40-soluble protein abundance (concentration: 10mM) was 0.992 ± 0.02.
Consider DNAJA1 (UniProt P31689), for which the NP40-soluble protein abundance worked out at 0.919 ± 0.03 (concentration: 1mM); 0.914 ± 0.051 (concentration: 2mM); 0.892 ± 0.062 (concentration: 4mM); 0.865 ± 0.071 (concentration: 6mM); 0.837 ± 0.066 (concentration: 8mM); 0.835 ± 0.058 (concentration: 10mM).
With ATP6V1A (UniProt P38606), the NP40-soluble protein abundance (concentration: 1mM) was found to be 0.969 ± 0.012; the NP40-soluble protein abundance (concentration: 2mM) was found to be 0.898 ± 0.078; the NP40-soluble protein abundance (concentration: 4mM) was found to be 0.946 ± 0.027; the NP40-soluble protein abundance (concentration: 6mM) was determined as 0.9602 ± 0.0071; the NP40-soluble protein abundance (concentration: 8mM) stood at 0.978 ± 0.021; the NP40-soluble protein abundance (concentration: 10mM) is 0.935 ± 0.048.
With AKAP5 (UniProt P24588), the NP40-soluble protein abundance turned out to be 0.994 ± 0.015 (concentration: 1mM); 1.02 ± 0.049 (concentration: 2mM); 0.981 ± 0.043 (concentration: 4mM); 0.997 ± 0.017 (concentration: 6mM); 0.985 ± 0.026 (concentration: 8mM); 1.014 ± 0.0024 (concentration: 10mM).
Regarding UniProt P17096 and related entries, the NP40-soluble protein abundance is, setting by setting: (concentration: 1mM) 1.01 ± 0.076; (concentration: 2mM) 1.19 ± 0.19; (concentration: 4mM) 1.12 ± 0.047; (concentration: 6mM) 1.29 ± 0.057; (concentration: 8mM) 1.31 ± 0.088; (concentration: 10mM) 1.74 ± 0.29.
On to IGHMBP2 (UniProt P38935), for which the NP40-soluble protein abundance reads like this: (concentration: 1mM) 1.17 ± 0.014; (concentration: 2mM) 1.16 ± 0.05; (concentration: 4mM) 1.22 ± 0.083; (concentration: 6mM) 1.26 ± 0.086; (concentration: 8mM) 1.33 ± 0.06; (concentration: 10mM) 1.42 ± 0.12.
On to UniProt P32121 and related entries, for which the NP40-soluble protein abundance runs as follows: (concentration: 1mM) 1.05 ± 0.017; (concentration: 2mM) 1.06 ± 0.017; (concentration: 4mM) 1.086 ± 0.0093; (concentration: 6mM) 1.13 ± 0.061; (concentration: 8mM) 1.14 ± 0.026; (concentration: 10mM) 1.16 ± 0.047.
Consider AK4 (UniProt P27144), for which the NP40-soluble protein abundance reads like this: (concentration: 1mM) 0.968 ± 0.031; (concentration: 2mM) 1.03 ± 0.074; (concentration: 4mM) 1.01 ± 0.074; (concentration: 6mM) 1.09 ± 0.078; (concentration: 8mM) 1.07 ± 0.036; (concentration: 10mM) 1.06 ± 0.049.
As for UniProt P35221 and related entries, the NP40-soluble protein abundance worked out at 1.03 ± 0.036 (concentration: 1mM); 1.04 ± 0.052 (concentration: 2mM); 0.989 ± 0.026 (concentration: 4mM); 0.978 ± 0.026 (concentration: 6mM); 0.953 ± 0.033 (concentration: 8mM); 0.959 ± 0.019 (concentration: 10mM).
ATP6V1C1 (UniProt P21283): the NP40-soluble protein abundance runs as follows: (concentration: 1mM) 0.999 ± 0.012; (concentration: 2mM) 0.9651 ± 0.0032; (concentration: 4mM) 0.982 ± 0.018; (concentration: 6mM) 0.9568 ± 0.0058; (concentration: 8mM) 0.968 ± 0.0073; (concentration: 10mM) 0.954 ± 0.036.
